The full ranking holds about 3,200 compounds; the median of “TSA(without NAD+) / Primary screening (TSA) / delta Tm (K)” is about -0.07, and the highest 2% start at about 0.37. Some of the results follow.

Chains of the proteins cited; added tags and fusions are not shown. Residues count along the entry.
UniProt Q96EB6, 2-747 limits assumed: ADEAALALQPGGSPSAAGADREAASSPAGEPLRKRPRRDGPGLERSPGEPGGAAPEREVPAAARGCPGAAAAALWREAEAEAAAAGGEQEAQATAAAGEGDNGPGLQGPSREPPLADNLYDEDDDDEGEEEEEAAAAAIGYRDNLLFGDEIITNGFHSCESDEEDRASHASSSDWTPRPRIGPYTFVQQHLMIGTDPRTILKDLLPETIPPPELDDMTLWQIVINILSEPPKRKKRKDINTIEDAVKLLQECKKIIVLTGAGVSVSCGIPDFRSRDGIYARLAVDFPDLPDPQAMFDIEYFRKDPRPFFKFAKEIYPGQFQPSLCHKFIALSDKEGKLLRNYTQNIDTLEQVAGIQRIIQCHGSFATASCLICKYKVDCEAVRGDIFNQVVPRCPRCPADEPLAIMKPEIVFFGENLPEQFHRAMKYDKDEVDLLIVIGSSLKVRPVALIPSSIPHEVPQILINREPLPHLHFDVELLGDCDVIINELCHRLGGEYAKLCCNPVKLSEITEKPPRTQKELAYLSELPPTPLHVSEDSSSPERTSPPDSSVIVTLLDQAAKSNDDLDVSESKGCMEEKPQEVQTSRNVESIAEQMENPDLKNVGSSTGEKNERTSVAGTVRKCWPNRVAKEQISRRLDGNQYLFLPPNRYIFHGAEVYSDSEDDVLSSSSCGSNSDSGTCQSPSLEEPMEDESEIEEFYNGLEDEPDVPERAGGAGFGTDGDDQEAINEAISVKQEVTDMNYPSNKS

The target of this assay is NAD-dependent deacetylase Sirtuin 1 (human, UniProt Q96EB6). Kind of assay: primary screen, delta tm. The arrangement: single well (n = 1). The following applies: 10 µM. As to the method:
A total of 3,192 compounds extracted from the proposed lists were first screened by thermal shift assay (TSA), which determined a melting temperature shift (ΔTm) of Sirtuin 1 upon the addition of a test compound at a concentration of 10 µM (n = 1) with primary hit criteria of ΔTm > 0.45 K or ΔTm < −1.5 K. Primary hits (48 compounds) were retested in the same assay at three concentrations (5, 10, 20 µM, n = 4) for hit confirmation and for dose-dependency check. Secondary hits (41 compounds) were checked their selectivity for Sirtuin 1 based on counterscreening on unrelated protein targets (bovine carbonic anhydrase (CA) and recombinant SH2 domain of hABL1 kinase (ABL1)) at three different concentrations (5, 10, 20 µM, n = 4), which yielded 38 hit compounds, hereafter referred to as TSA hits. The TSA screening above was conducted in the absence of NAD+.
On to `O=C(CCn1ccc2ccccc21)NCC(c1ccccc1)N1CCCC1` (centres unmarked), for which the “TSA(without NAD+) / Primary screening (TSA) / delta Tm (K)” value is reported as -0.13 K. With `O=C1Nc2ccccc2/C1=C\c1cn(CCOc2ccccc2)c2ccc(Br)cc12` the figure was 0.18 K. Turning to `O=C1Nc2c(Cl)cc(Cl)cc2C1=O`, the “TSA(without NAD+) / Primary screening (TSA) / delta Tm (K)” value was -0.58 K. With `C=C(C)CSc1nnc(S)s1` the figure was -0.13 K; with `c1nc(N2CCCSCC2)c2sccc2n1`, -0.15 K; with `COc1cc(CN(C)C(=O)c2ccc(N3CCCC3=O)cc2)ccc1OCc1ccccc1`, 0.05 K.

For the molecule `O=C(CCCn1c(=O)oc2ccccc21)Nc1cccc(S(=O)(=O)NCc2ccco2)c1`, the “TSA(without NAD+) / Primary screening (TSA) / delta Tm (K)” value is on record as 0.02 K.

As to `COc1ccc(N(C)S(=O)(=O)c2cccc(C(=O)OCc3ccc(C#N)cc3)c2)cc1`, the “TSA(without NAD+) / Primary screening (TSA) / delta Tm (K)” value worked out at 0.16 K. As for `O=C(CCn1[nH]c(=O)ccc1=O)Nc1nc(SCc2ccccc2)ns1`, the figure is -0.12 K.

Turning to `CN(c1cccc(Cl)c1)S(=O)(=O)c1cccc(C(=O)OCc2cc(=O)oc3ccc4ccccc4c23)c1`, the “TSA(without NAD+) / Primary screening (TSA) / delta Tm (K)” value is listed as 0.17 K. As for `COc1ccc(NC(=O)c2cccc(S(=O)(=O)N(C)c3ccc(OC)cc3)c2)cc1`, the “TSA(without NAD+) / Primary screening (TSA) / delta Tm (K)” value was 0.03 K. With `CC(C)C(=O)N1CCCCC1C(=O)NCC1CCCN(Cc2cccs2)C1` (centres unmarked) the figure was 0.12 K; with `Cc1ccc2nc(C)c(C(=O)Nc3ccccc3NC(=O)N3CCCC3)cc2c1`, -0.27 K. As for `O=C1NC(=O)c2cc([N+](=O)[O-])ccc21`, the figure is -0.15 K; as for `Cc1cc(C(=O)CSc2nncn2-c2ccccc2)c(C)n1C1CC1`, -0.11 K; as for `CCCOc1ccc(C2C(C(=O)c3cccs3)=C(O)C(=O)N2CCCN2CCOCC2)cc1` (centres unmarked), -0.23 K. `CS(=O)(=O)c1ccc(C(=O)N(Cc2ccccc2)c2ccccc2)cc1`: the “TSA(without NAD+) / Primary screening (TSA) / delta Tm (K)” value is recorded as -0.08 K. With `NCCCCCCN` the figure was 0.02 K; with `Cc1noc(CN2CCN(c3ncnc4c3oc3ccccc34)CC2)n1`, -0.33 K; with `Cc1cc(C(=O)O)ncc1C#N`, -0.08 K. With `Cc1cc(C(C)NCCCO)ccc1Br` (centres unmarked) the figure was -0.23 K; with `CC(=O)NC12CC3CC(C1)CC(C(=O)NNC(=O)COc1ccccc1Cc1ccccc1)(C3)C2`, -0.22 K.

On to `Cc1csc(NC(=O)c2cc(S(=O)(=O)Nc3ccccc3C)ccc2C)n1`, for which the “TSA(without NAD+) / Primary screening (TSA) / delta Tm (K)” value turned out to be 0.02 K. With `O=C(CSc1nnc(-c2ccccc2)o1)N(Cc1ccccc1)c1nc2c(s1)CCCC2` the figure was -0.17 K; with `NC(=O)c1csc(C(=O)Oc2cccc(-n3cccn3)c2)c1`, -0.14 K; with `CC(C)c1ccc(-n2cc(O)c(C(=O)N(C)CC(=O)O)n2)cc1`, -0.05 K. As for `COc1ncccc1CNC(=O)CN(C)c1ncnc2nc[nH]c12`, the figure is -0.04 K. As for `COc1cc(C)ccc1OCC(=O)Nc1nc2c(s1)CN(C)CC2`, the figure is -0.02 K. Turning to `CC(C)(CNc1cccc(F)c1[N+](=O)[O-])C(N)=O`, the “TSA(without NAD+) / Primary screening (TSA) / delta Tm (K)” value is reported as -0.17 K. With `NC(=O)c1ccc(-c2nnn(CC(=O)Nc3ccccc3N3CCCC3)n2)cc1` the figure was -0.13 K; with `O=C(O)c1cnc2[nH]c3ccccc3n2c1=O`, -0.22 K. As to `COC(=O)CC(C)C(=O)NCc1c(C)nc2c(c1C)c(=O)[nH]n2C` (centres unmarked), the “TSA(without NAD+) / Primary screening (TSA) / delta Tm (K)” value is -0.17 K. With `O=C(c1n[nH]c(=O)c2ccccc12)N1CCCC2(CCCCCC2)C1` the figure was -0.02 K; with `CC1CN(c2ncnc3ccsc23)CCO1` (centres unmarked), -0.22 K; with `C[C@H](CCO)Nc1ccc(Br)cc1C#N`, -0.13 K.

`Cc1csc2c(-n3cc([N+](=O)[O-])cn3)ncnc12`: the “TSA(without NAD+) / Primary screening (TSA) / delta Tm (K)” value is -0.22 K.

With `Cc1ccc2[nH]c(-c3cccs3)c(CCC(=O)O)c2c1`, the “TSA(without NAD+) / Primary screening (TSA) / delta Tm (K)” value was -0.23 K. As for `O=C(NCc1cccc(C(=O)NCc2ccco2)c1)Nc1nnc(C2CC2)s1`, the figure is 0.06 K; as for `CCC(N)c1nnn[nH]1` (centres unmarked), -0.02 K; as for `Cc1nn(-c2cccc(C(F)(F)F)c2)c2sc(C(=O)NC3CC3)cc12`, 0.05 K. As for `CN(c1ccccc1)S(=O)(=O)c1cccc(NC(=O)CCCc2c[nH]c3ccccc23)c1`, the figure is 0.52 K. With `O=c1oc2ccc3ccccc3c2cc1-c1cn(-c2ccc(Br)cc2)c(S)n1` the figure was -0.12 K. In the case of `COC(=O)C[C@@H](C)OC(=O)c1ccc(F)cc1F`, the “TSA(without NAD+) / Primary screening (TSA) / delta Tm (K)” value is 0.02 K. With `FC(F)(F)c1nnc2ccc(NCC3CCOC3)nn12` (centres unmarked) the figure was -0.02 K; with `N#CCCn1cc(/C=C/C(=O)NC2CC2c2cccc(F)c2)c2ccccc21` (centres unmarked), -0.04 K. As for `c1ccc(-c2cn(-c3nc(-c4cccnc4)nc4ccccc34)cn2)cc1`, the figure is -0.11 K; as for `O=C(NC1CCOc2ccccc21)c1ccc2c(c1)NC(=O)C1CCCN21` (centres unmarked), -0.48 K.

Source of the values: PMC6925144, “A prospective compound screening contest identified broader inhibitors for Sirtuin 1” (Scientific Reports, 2019).
